No constants are given. Whether binding was seen depends on the method and setting. Some entries that bind do so weakly or less than the wild type.
Target: T1, human EpCAM full-length protein (on MCF-7 and A431 cells) (human) (UniProt P16422)
T1 sequence: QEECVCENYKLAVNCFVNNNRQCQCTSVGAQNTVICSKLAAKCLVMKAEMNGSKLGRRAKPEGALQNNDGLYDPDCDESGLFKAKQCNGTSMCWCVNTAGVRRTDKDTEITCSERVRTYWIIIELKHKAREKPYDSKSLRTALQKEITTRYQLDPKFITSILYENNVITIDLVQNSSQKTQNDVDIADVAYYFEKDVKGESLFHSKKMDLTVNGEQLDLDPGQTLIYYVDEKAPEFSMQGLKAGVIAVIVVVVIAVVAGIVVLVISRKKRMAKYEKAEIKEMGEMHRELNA
Test: flow cytometry (FACS) on MCF-7 and A431 cells, Alexa Fluor 488 goat anti-human IgG detection

binding: binds
B1: fully human antibody h1906 (antibody, human IgG1, kappa, V domains shown)
VH: QMQLVQSGAEVKKPGASVKVSCKASGYTFTSYDINWVRQATGQGLEWMGWMNPNSGNTGYAQKFQGRVTMTRNTSISTAYMELSSLRSEDTAVYYCARGVVVVVAATRGHYYYYYGMDVWGQGTTVTVSS
VL: DIQMTQSPSSLSASIGDRVSMTCRASQSVTKYLNWYQQTPGKPPKLLIFSASHLQTGVPSRFSGSGSGTDFTLTIDSLQPEDVATYYCQQSYSTPFTFGQGTNVEIKR

Source: patent WO2020216210A1 (dated 2020)
